Source: PubChem BioAssay AID1259424 (University of Nebraska Medical Center, 2018)
Shown is one part, drawn at random, of about 14,000 reagents. 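Higher correlation or smaller distance means closer resemblance to KSR1 loss; control wells, including KSR1 knockdowns, recur on many plates.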 No sequences are given here. Not stated in the record: the time to read-out.

- Aim: 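Seek colon cancer survival genes behaving like KSR1, using a six-gene signature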 (primary screen)
- Cells: human HCT116 colon cancer cells
- Knock-down reagent: siRNA pool against human genes, 50 nM
- Measured: 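Six signature mRNAs by branched-DNA multiplex assay, scaled to two housekeeping genes and non-targeting median, log2; matched to mean KSR1 knockdown profile by Pearson correlation and euclidean distance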
- Scale: mean correlation with KSR1 profile and KSR1 correlation: higher = expression change more like KSR1 knockdown; mean distance from KSR1 profile: higher = expression change less like KSR1 knockdown

| gene symbol | mean correlation with KSR1 profile | mean distance from KSR1 profile | KSR1 correlation, replicate 1 | KSR1 correlation, replicate 2 | KSR1 correlation, replicate 3 |
| --- | --- | --- | --- | --- | --- |
| CAPNS1 (GeneID 826) | 0.476 | 1.11 | 0.552 | 0.553 | 0.252 |
| FBXL4 (GeneID 26235) | 0.618 | 1.99 | 0.462 | 0.567 | 0.647 |
| SFMBT2 (GeneID 57713) | 0.686 | 1.42 | 0.403 | 0.727 | 0.603 |
| TNS4 (GeneID 84951) | 0.568 | 2.52 | 0.59 | 0.304 | 0.374 |
| POLR3E (GeneID 55718) | -0.0499 | 3.9 | 0.128 | -0.0394 | -0.152 |
| XPNPEP3 (GeneID 63929) | -0.0344 | 2.46 | -0.169 | 0.0347 | -0.105 |
| CYSLTR1 (GeneID 10800) | 0.447 | 2.16 | 0.294 | 0.57 | 0.152 |
| CYTH3 (GeneID 9265) | -0.535 | 2.09 | -0.742 | -0.341 | -0.482 |
| ZNF430 (GeneID 80264) | -0.174 | 2.08 | -0.542 | -0.0623 | -0.334 |
| KLHL28 (GeneID 54813) | -0.146 | 2.51 | -0.152 | -0.153 | 0.0247 |
| GSDMC (GeneID 56169) | -0.125 | 2 | 0.122 | -0.356 | -0.0828 |
| B3GNT2 (GeneID 10678) | -0.455 | 2.34 | -0.253 | -0.564 | -0.568 |
| ZNF263 (GeneID 10127) | -0.349 | 1.77 | -0.224 | -0.212 | -0.838 |
| PLA2G5 (GeneID 5322) | 0.684 | 1.38 | 0.564 | 0.734 | 0.562 |
| TFF1 (GeneID 7031) | -0.527 | 2.93 | -0.372 | -0.624 | -0.405 |
| SEZ6L2 (GeneID 26470) | -0.405 | 2.07 | -0.52 | -0.36 | -0.28 |
| WWC3 (GeneID 55841) | 0.0452 | 2.41 | 0.0687 | -0.192 | 0.0852 |
| TCIM (GeneID 56892) | -0.619 | 2.22 | 0.0164 | -0.583 | -0.826 |
| ARIH1 (GeneID 25820) | -0.31 | 1.77 | -0.166 | -0.249 | -0.583 |
| PALB2 (GeneID 79728) | 0.532 | 2.48 | 0.5 | 0.635 | 0.31 |

Not a retest: entries from further up.
| gene symbol | mean correlation with KSR1 profile | mean distance from KSR1 profile | KSR1 correlation, replicate 1 | KSR1 correlation, replicate 2 | KSR1 correlation, replicate 3 |
| --- | --- | --- | --- | --- | --- |
| SEZ6L2 (GeneID 26470) | -0.405 | 2.07 | -0.52 | -0.36 | -0.28 |
| WWC3 (GeneID 55841) | 0.0452 | 2.41 | 0.0687 | -0.192 | 0.0852 |
